Some of the results follow.
Columns and labels:
Experiment in all cases: log2 fold change, soluble protein after heating vs DMSO (PISA); higher = thermal stabilisation; K562 cells, 10 uM, 30 min; active = over 0.2 and 3.5 SD of the protein, either way, in both replicates (recomputed)
bafetinib = compound: Cc1ccc(NC(=O)c2ccc(CN3CC[C@H](N(C)C)C3)c(C(F)(F)F)c2)cc1Nc1nccc(-c2cncnc2)n1 [bafetinib]
Method in brief: (§1)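 K562 cells at 2×10^6 cells/mL were exposed to 10 μM compound for 30 min, then aliquots were heated for 3 min across 48°C-58°C, pooled, and extracted in PBS containing 0.5% NP-40 at 4°C. The supernatant after 21,000xg for 90 min was taken as soluble protein and measured by TMTpro 16plex LC-MS/MS with channel sums equalised. Thermal stability is reported relative to control samples, with values from duplicates. Fold changes are given on a log2 scale.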

Amino acid sequences for entries named in this document (tags omitted). A change or cut given only in a name is not applied to a line headed by its entry.
UniProt P56381: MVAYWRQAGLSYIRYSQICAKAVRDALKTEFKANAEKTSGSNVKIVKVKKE
UniProt Q9NXU5: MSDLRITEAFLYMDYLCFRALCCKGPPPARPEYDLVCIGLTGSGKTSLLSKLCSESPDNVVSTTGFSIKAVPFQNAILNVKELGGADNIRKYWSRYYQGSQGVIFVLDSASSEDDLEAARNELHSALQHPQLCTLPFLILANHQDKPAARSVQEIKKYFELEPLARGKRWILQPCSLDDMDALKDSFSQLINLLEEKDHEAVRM
UniProt P36543, whole entry, looked up: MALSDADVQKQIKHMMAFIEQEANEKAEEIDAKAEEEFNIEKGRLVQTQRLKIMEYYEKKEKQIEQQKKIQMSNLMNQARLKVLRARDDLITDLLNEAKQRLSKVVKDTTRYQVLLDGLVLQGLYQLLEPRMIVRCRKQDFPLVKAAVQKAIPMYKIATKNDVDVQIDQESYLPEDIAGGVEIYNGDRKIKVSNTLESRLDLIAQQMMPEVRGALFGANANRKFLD
UniProt Q7L266: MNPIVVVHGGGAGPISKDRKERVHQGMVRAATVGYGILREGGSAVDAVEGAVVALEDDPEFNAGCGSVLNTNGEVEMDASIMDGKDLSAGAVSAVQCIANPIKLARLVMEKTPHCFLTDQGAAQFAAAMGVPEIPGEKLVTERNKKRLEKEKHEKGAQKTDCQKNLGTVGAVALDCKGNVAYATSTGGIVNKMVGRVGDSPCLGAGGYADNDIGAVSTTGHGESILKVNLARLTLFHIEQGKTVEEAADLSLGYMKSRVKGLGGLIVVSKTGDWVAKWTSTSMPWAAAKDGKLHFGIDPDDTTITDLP
UniProt Q9UI12, whole entry, looked up: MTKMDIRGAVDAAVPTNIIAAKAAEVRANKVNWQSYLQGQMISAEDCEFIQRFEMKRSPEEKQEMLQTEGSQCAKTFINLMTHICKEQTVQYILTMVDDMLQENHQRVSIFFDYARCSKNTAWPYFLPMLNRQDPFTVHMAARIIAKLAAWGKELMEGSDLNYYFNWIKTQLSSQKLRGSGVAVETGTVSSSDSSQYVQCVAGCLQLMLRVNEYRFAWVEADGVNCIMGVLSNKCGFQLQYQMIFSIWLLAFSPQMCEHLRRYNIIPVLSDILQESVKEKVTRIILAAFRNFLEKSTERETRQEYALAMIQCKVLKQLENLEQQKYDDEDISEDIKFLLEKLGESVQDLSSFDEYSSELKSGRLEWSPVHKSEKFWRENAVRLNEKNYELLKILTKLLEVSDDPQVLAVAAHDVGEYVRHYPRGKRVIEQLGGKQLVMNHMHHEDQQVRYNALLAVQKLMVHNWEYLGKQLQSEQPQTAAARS
UniProt Q8IZT6: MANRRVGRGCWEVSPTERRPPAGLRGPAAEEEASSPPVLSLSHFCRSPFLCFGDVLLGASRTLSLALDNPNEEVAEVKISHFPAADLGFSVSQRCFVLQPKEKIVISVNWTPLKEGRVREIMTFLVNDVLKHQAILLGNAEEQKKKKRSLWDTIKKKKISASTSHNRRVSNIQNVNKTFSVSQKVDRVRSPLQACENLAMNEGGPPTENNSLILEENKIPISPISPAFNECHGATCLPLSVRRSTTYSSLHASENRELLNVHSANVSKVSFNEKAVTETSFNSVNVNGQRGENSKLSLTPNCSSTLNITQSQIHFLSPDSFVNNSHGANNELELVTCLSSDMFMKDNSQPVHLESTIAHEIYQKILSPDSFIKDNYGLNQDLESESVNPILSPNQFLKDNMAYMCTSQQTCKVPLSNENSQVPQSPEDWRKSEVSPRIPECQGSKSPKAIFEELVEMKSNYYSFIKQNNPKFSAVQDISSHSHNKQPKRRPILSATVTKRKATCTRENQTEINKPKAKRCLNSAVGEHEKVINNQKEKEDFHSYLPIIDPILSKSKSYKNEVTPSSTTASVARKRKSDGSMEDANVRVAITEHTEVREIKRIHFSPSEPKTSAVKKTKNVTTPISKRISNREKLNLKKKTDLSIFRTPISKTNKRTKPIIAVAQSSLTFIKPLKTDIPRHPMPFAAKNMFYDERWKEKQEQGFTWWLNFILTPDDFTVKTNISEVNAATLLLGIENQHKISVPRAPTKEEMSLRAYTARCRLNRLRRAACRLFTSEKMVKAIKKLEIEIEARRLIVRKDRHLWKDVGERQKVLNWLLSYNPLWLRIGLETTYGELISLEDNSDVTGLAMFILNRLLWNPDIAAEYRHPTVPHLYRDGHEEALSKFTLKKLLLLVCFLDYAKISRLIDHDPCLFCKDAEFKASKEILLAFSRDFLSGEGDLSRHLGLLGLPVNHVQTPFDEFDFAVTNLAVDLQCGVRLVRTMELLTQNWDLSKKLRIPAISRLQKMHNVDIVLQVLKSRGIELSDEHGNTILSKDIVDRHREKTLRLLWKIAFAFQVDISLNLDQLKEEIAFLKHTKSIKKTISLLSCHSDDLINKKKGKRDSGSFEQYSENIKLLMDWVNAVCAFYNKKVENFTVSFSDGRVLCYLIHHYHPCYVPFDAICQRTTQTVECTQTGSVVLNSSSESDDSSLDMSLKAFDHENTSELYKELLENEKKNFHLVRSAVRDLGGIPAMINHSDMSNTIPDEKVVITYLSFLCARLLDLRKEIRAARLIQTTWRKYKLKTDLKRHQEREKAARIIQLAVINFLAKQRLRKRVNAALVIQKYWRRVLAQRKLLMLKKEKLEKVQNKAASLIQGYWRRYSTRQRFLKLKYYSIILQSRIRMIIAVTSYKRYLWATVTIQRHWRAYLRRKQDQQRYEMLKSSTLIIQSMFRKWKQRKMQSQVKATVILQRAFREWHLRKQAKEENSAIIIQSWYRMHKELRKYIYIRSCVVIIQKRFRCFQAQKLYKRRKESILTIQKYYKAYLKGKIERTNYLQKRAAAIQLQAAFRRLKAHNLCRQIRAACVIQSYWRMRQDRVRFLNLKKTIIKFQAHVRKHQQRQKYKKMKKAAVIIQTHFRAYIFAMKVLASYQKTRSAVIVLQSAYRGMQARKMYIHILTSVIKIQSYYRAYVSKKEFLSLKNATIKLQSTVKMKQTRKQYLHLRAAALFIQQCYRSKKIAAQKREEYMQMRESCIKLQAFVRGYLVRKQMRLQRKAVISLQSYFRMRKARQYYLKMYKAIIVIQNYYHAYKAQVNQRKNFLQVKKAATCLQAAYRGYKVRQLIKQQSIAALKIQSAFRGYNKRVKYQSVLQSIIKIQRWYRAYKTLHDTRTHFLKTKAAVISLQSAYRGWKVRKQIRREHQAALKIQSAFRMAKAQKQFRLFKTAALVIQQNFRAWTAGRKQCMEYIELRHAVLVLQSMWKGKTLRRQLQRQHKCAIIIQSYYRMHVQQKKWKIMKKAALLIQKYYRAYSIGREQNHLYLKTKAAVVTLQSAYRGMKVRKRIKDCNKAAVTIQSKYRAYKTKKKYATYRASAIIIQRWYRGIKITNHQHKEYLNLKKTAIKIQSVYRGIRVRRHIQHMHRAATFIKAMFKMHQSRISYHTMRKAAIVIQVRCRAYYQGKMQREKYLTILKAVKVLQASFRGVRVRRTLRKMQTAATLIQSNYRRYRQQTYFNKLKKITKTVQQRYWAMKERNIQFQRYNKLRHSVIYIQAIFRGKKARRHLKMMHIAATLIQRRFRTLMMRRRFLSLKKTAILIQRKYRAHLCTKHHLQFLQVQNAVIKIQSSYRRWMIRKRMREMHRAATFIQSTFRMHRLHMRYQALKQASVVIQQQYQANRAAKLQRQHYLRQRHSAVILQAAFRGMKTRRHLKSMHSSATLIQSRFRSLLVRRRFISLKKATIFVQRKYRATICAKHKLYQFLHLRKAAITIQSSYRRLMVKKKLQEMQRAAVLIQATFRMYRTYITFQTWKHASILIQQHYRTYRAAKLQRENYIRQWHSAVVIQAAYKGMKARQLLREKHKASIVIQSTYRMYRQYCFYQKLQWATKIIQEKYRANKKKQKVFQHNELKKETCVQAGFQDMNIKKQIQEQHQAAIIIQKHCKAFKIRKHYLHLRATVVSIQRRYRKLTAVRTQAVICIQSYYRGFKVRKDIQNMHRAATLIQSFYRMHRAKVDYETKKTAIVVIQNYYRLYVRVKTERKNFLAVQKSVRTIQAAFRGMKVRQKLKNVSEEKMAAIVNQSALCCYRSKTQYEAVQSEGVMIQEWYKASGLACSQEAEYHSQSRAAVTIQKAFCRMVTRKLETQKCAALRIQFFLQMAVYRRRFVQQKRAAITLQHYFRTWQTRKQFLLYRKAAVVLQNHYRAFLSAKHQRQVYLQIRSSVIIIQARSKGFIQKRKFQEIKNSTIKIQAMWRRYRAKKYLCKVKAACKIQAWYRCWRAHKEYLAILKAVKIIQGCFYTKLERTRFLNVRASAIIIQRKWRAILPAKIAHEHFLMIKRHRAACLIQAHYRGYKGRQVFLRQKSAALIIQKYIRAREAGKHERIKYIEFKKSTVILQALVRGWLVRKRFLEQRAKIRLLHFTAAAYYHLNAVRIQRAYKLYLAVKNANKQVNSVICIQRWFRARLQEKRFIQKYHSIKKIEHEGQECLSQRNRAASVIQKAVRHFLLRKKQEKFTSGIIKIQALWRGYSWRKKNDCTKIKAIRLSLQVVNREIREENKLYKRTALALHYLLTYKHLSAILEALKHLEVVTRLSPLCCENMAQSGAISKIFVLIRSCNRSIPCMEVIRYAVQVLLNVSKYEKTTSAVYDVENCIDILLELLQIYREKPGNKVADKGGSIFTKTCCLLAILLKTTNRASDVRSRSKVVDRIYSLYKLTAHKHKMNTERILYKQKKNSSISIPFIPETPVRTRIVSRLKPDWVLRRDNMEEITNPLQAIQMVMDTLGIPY
UniProt Q9BZE9, whole entry, looked up: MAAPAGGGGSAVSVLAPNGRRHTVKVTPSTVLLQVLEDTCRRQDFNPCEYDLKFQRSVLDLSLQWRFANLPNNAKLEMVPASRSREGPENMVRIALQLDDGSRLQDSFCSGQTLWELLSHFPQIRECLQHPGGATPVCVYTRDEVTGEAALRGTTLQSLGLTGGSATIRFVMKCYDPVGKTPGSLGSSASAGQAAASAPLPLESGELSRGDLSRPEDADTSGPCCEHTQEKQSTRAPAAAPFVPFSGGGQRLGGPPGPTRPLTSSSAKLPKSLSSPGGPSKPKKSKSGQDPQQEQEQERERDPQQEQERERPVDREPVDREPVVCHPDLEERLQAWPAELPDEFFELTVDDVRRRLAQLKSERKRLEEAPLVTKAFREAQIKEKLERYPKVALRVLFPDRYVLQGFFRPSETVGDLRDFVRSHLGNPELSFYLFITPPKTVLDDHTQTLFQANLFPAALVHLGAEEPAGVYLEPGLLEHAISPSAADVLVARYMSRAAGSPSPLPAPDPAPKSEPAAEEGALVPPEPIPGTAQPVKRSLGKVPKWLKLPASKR
UniProt Q9UBL3, whole entry, looked up: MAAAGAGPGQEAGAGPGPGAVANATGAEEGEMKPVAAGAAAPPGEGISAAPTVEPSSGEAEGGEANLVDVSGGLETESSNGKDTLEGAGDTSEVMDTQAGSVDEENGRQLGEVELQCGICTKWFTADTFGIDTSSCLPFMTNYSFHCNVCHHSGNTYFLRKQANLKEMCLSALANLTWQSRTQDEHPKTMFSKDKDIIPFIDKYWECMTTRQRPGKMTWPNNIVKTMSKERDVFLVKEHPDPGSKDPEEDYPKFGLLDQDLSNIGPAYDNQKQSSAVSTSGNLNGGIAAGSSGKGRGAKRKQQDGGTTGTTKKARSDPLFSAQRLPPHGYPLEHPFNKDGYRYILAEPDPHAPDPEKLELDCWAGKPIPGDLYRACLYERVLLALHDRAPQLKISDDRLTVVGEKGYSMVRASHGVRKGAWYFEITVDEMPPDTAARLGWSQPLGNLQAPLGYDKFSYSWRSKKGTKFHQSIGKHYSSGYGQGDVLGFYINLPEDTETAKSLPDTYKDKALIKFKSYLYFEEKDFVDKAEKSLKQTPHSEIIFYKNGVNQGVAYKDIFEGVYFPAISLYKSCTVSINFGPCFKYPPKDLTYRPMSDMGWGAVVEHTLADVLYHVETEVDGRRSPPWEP
UniProt P18850: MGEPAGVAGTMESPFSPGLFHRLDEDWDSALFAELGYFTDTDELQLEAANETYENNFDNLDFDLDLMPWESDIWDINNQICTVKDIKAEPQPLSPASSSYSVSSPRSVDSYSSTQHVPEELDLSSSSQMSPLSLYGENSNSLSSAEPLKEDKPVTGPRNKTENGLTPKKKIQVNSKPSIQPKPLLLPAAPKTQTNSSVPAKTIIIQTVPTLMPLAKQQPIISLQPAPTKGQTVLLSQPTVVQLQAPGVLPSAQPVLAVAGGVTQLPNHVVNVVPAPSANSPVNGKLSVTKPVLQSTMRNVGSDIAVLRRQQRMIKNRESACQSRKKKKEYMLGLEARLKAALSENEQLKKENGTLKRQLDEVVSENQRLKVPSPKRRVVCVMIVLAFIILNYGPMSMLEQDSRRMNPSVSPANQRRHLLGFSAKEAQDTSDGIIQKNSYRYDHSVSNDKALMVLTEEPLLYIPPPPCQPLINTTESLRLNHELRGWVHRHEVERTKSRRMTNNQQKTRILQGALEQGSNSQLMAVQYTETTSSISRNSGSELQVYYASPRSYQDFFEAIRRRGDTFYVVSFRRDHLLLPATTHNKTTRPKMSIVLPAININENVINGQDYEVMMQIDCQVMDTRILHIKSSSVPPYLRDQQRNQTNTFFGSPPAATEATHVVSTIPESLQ

[1] = compound: Cc1cccc(CC(=O)N2CCc3c2ccc(-c2cn(C)c4ncnc(N)c24)c3F)n1
Method in brief: as §1

nilotinib = compound: Cc1cn(-c2cc(NC(=O)c3ccc(C)c(Nc4nccc(-c5cccnc5)n4)c3)cc(C(F)(F)F)c2)cn1 [nilotinib]
Method in brief: as §1

[2] = compound: Cc1nc(Nc2n[nH]c3c2CN(C(=O)N[C@H](CN(C)C)c2ccccc2)C3(C)C)c2sccc2n1
Method in brief: as §1

dasatinib = compound: Cc1nc(Nc2ncc(C(=O)Nc3c(C)cccc3Cl)s2)cc(N2CCN(CCO)CC2)n1 [dasatinib]
Method in brief: as §1

[3] = compound: Cc1ncc(-c2ccnc(Nc3ccc(S(C)(=O)=O)cc3)n2)n1C(C)C
Method in brief: as §1

[4] = compound: Cn1cc(-c2ccc3c(c2)CCN3C(=O)Cc2cccc(C(F)(F)F)c2)c2c(N)ncnc21
Method in brief: as §1

[5] = compound: Cn1cc(-c2ccc3nnc(C(F)(F)c4ccc5ncccc5c4)n3n2)cn1
Method in brief: as §1

tipifarnib = compound: Cn1cncc1[C@@](N)(c1ccc(Cl)cc1)c1ccc2c(c1)c(-c1cccc(Cl)c1)cc(=O)n2C [tipifarnib]
Method in brief: as §1

mubritinib = compound: FC(F)(F)c1ccc(/C=C/c2nc(COc3ccc(CCCCn4ccnn4)cc3)co2)cc1 [mubritinib]
Method in brief: as §1

Measured: log2 fold change

ATP5F1E (UniProt P56381)
inactive: bafetinib -0.104 | [1] -0.02 | nilotinib -0.002 | [2] -0.023 | dasatinib 0.109 | [3] -0.046 | [4] -0.029 | [5] 0.065 | tipifarnib 0.067 | mubritinib 0.042

ATP5PB (UniProt P24539)
inactive: bafetinib 0.001 | [1] -0.027 | nilotinib -0.01 | [2] 0.031 | dasatinib 0.065 | [3] -0.007 | [4] 0.016 | [5] 0.017 | tipifarnib 0.021 | mubritinib -0.007

ATP5MF (UniProt P56134)
inactive: bafetinib -0.077 | [1] -0.086 | nilotinib 0.007 | [2] 0.018 | dasatinib 0.04 | [3] 0.013 | [4] 0.011 | [5] -0.009 | tipifarnib 0.021 | mubritinib 0.072

ARL15 (UniProt Q9NXU5)
inactive: bafetinib 0.014 | [1] 0.013 | nilotinib 0.007 | [2] -0.007 | dasatinib -0.037 | [3] 0.026 | [4] 0.144 | [5] 0.061 | tipifarnib -0.019 | mubritinib 0.008

ATP5PF isoform 2 (UniProt P18859)
inactive: bafetinib -0.048 | [1] -0.035 | nilotinib 0.054 | [2] 0.016 | dasatinib 0.088 | [3] -0.08 | [4] 0.11 | [5] 0.154 | tipifarnib 0.049 | mubritinib 0.01

ARPP19 (UniProt P56211)
inactive: bafetinib -0.057 | [1] 0.005 | nilotinib 0.02 | [2] -0.041 | dasatinib 0.045 | [3] -0.004 | [4] 0.033 | [5] -0.022 | tipifarnib -0.055 | mubritinib 0.002

ATN1 (UniProt P54259)
inactive: bafetinib 0.02 | [1] -0.063 | nilotinib 0.039 | [2] -0.016 | dasatinib -0.02 | [3] 0.054 | [4] 0.059 | [5] 0.015 | tipifarnib -0.008 | mubritinib -0.054

ATP13A3 (UniProt Q9H7F0)
inactive: bafetinib -0.067 | [1] 0.116 | nilotinib -0.015 | [2] -0.06 | dasatinib 0.008 | [3] 0.024 | [4] -0.099 | [5] 0.002 | tipifarnib 0.098 | mubritinib -0.049

ATP6V1E1 (UniProt P36543)
inactive: bafetinib -0.143 | [1] 0.015 | nilotinib -0.034 | [2] -0.043 | dasatinib 0.03 | [3] 0.048 | [4] -0.03 | [5] -0.039 | tipifarnib 0.036 | mubritinib 0.094

ATP6V1D (UniProt Q9Y5K8)
inactive: bafetinib -0.056 | [1] 0.007 | nilotinib 0.018 | [2] 0.007 | dasatinib 0.055 | [3] -0.011 | [4] -0.003 | [5] 0.018 | tipifarnib 0.058 | mubritinib 0.052

ARRDC1 (UniProt Q8N5I2)
inactive: bafetinib 0.014 | [1] -0.035 | nilotinib -0.045 | [2] 0.065 | dasatinib -0.073 | [3] 0.079 | [4] 0 | [5] -0.087 | tipifarnib 0.011 | mubritinib -0.112

ATG4B isoform 2 (UniProt Q9Y4P1)
inactive: bafetinib 0.004 | [1] 0.073 | nilotinib -0.061 | [2] -0.035 | dasatinib -0.242 | [3] -0.041 | [4] 0.022 | [5] 0.13 | tipifarnib -0.402 | mubritinib 0.073

ATP5F1C (UniProt P36542)
inactive: bafetinib -0.011 | [1] -0.012 | nilotinib -0.009 | [2] 0.015 | dasatinib 0.036 | [3] -0.02 | [4] 0.008 | [5] 0.029 | tipifarnib 0.003 | mubritinib 0.036

ASRGL1 (UniProt Q7L266)
inactive: bafetinib -0.147 | [1] 0.038 | nilotinib 0.027 | [2] 0.018 | dasatinib 0.005 | [3] 0.03 | [4] 0.052 | [5] 0.084 | tipifarnib -0.034 | mubritinib 0.08

ATP5IF1 (UniProt Q9UII2)
inactive: bafetinib -0.039 | [1] -0.101 | nilotinib -0.038 | [2] 0.005 | dasatinib 0.055 | [3] -0.042 | [4] -0.002 | [5] 0.094 | tipifarnib 0.059 | mubritinib 0.033

ARL8A (UniProt Q96BM9)
inactive: bafetinib -0.101 | [1] -0.042 | nilotinib -0.008 | [2] 0.049 | dasatinib 0.027 | [3] -0.001 | [4] 0.031 | [5] 0.096 | tipifarnib 0.084 | mubritinib 0.026

ATG101 (UniProt Q9BSB4)
inactive: bafetinib -0.047 | [1] -0.03 | nilotinib 0.025 | [2] 0.088 | dasatinib 0.019 | [3] -0.021 | [4] -0.035 | [5] -0.046 | tipifarnib 0.049 | mubritinib 0.05

ATG16L1 (UniProt Q676U5)
inactive: bafetinib 0.016 | [1] 0.025 | nilotinib 0.003 | [2] -0.007 | dasatinib 0.01 | [3] -0.013 | [4] 0.048 | [5] -0.01 | tipifarnib -0.008 | mubritinib 0.052

ATP6V1H (UniProt Q9UI12)
inactive: bafetinib -0.057 | [1] 0.037 | nilotinib -0.015 | [2] -0.016 | dasatinib -0.029 | [3] 0.049 | [4] 0.025 | [5] -0.013 | tipifarnib -0.01 | mubritinib 0.098

ASPM (UniProt Q8IZT6)
inactive: bafetinib -0.069 | [1] 0.018 | nilotinib 0.047 | [2] -0.056 | dasatinib -0.056 | [3] -0.004 | [4] -0.098 | [5] -0.029 | tipifarnib -0.028 | mubritinib 0.068

ATP1A3 isoform 3 (UniProt P13637)
inactive: bafetinib -0.004 | [1] -0.039 | nilotinib 0.045 | [2] -0.001 | dasatinib 0.08 | [3] 0.053 | [4] -0.008 | [5] -0.019 | tipifarnib 0.011 | mubritinib 0.076

ASPSCR1 isoform 2 (UniProt Q9BZE9)
inactive: bafetinib 0.023 | [1] 0.074 | nilotinib 0.016 | [2] -0.02 | dasatinib -0.015 | [3] 0.004 | [4] -0.023 | [5] 0.01 | tipifarnib -0.066 | mubritinib 0.134

ATP6V0D1 (UniProt P61421)
inactive: bafetinib -0.065 | [1] 0.129 | nilotinib 0.014 | [2] -0.03 | dasatinib -0.009 | [3] -0.076 | [4] -0.033 | [5] 0.136 | tipifarnib 0.016 | mubritinib -0.002

ASH2L (UniProt Q9UBL3)
inactive: bafetinib 0 | [1] -0.013 | nilotinib -0.008 | [2] -0.041 | dasatinib -0.004 | [3] 0.013 | [4] -0.07 | [5] -0.017 | tipifarnib -0.041 | mubritinib -0.023

ATE1 isoform 2 (UniProt O95260)
inactive: bafetinib -0.029 | [1] -0.024 | nilotinib 0.017 | [2] -0.024 | dasatinib -0.017 | [3] 0.049 | [4] 0.172 | [5] -0.019 | tipifarnib -0.023 | mubritinib 0.038

ATG2A isoform 3 (UniProt Q2TAZ0)
inactive: bafetinib -0.077 | [1] 0.045 | nilotinib -0.015 | [2] -0.021 | dasatinib 0.009 | [3] -0.003 | [4] 0.06 | [5] 0 | tipifarnib -0.014 | mubritinib 0.047

ATAD3B (UniProt Q5T9A4)
inactive: bafetinib -0.014 | [1] 0.018 | nilotinib -0.072 | [2] -0.039 | dasatinib -0.099 | [3] 0.027 | [4] -0.103 | [5] -0.186 | tipifarnib 0.03 | mubritinib -0.37

ARRB1 (UniProt P49407)
inactive: bafetinib -0.051 | [1] -0.044 | nilotinib -0.012 | [2] -0.041 | dasatinib 0 | [3] -0.024 | [4] 0.035 | [5] 0.053 | tipifarnib -0.016 | mubritinib 0.029

ATP2B4 (UniProt P23634)
inactive: bafetinib -0.091 | [1] -0.05 | nilotinib -0.002 | [2] -0.013 | dasatinib 0.024 | [3] -0.009 | [4] 0.002 | [5] -0.012 | tipifarnib 0.056 | mubritinib 0.04

ATP6V0C (UniProt P27449)
inactive: bafetinib 0.058 | [1] 0.276 | nilotinib 0.133 | [2] -0.222 | dasatinib -0.095 | [3] 0.013 | [4] -0.127 | tipifarnib 0.019 | mubritinib -0.112

Reprinted from above (two entries):
ATP2B4 (UniProt P23634)
inactive: bafetinib -0.091 | [1] -0.05 | nilotinib -0.002 | [2] -0.013 | dasatinib 0.024 | [3] -0.009 | [4] 0.002 | [5] -0.012 | tipifarnib 0.056 | mubritinib 0.04

ATP6V0C (UniProt P27449)
inactive: bafetinib 0.058 | [1] 0.276 | nilotinib 0.133 | [2] -0.222 | dasatinib -0.095 | [3] 0.013 | [4] -0.127 | tipifarnib 0.019 | mubritinib -0.112

(list continues)

ATF6 (UniProt P18850)
inactive: [5] -0.326

From the supplement of paper PMC10849652
